Reference: PubChem BioAssay AID1439 (NMMLSC, 2008)
Hit rate of the full screen: of about 220,000 compounds, about 770 (0.35%) were called active. This list was built around the results that the source calls inconclusive (neither active nor inactive); the mix of calls is not that of the screen. Rule as the data show it: active = binding response below about 49% or above about 150%; inconclusive = no clear call, values can overlap the other calls; inactive = in between.

Chains of the proteins cited; added tags and fusions are not shown.
UniProt P09471, whole entry, looked up: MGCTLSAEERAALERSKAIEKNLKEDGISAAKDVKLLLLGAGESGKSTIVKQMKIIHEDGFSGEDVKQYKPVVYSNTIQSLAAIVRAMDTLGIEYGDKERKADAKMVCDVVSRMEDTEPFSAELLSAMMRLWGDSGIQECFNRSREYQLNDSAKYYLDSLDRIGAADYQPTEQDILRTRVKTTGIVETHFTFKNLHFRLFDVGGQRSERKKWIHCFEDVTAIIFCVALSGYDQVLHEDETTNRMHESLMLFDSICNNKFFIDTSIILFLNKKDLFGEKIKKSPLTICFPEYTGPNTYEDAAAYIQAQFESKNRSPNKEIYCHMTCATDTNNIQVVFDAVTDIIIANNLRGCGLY

Each compound was assayed against Guanine nucleotide-binding protein G(o) subunit alpha (Homo sapiens) (UniProt P09471) (assay: RGS7-Galphao binding modulators, primary screen, biochemical, multiplexed bead flow cytometry (AID 1439;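 also: fluorescent Galphao held in activated GDP-AlF4 state binding bead-coupled RGS7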)). Conditions: at 10 µM, actives lie on both sides.

Row | SMILES | binding response (% of control)
1 | CCOC(=O)C1=C(N)N2C(=O)C(C)SC2=C(C(=O)OCC)C1c1ccc(O)cc1 (stereo not given) | inconclusive: 123%
2 | CC(=O)Nc1ccccc1C(=O)C(=O)Nc1ccc(C(=O)N2CCOCC2)cc1 | inactive: 104%
3 | O=C(Cn1c(=O)oc2ccccc21)Nc1n[nH]c(=S)s1 | inconclusive: 142%
4 | COC(=O)[C@H]1[C@H]2C[C@@H]3c4[nH]c5cc(OC)ccc5c4CCN3C[C@H]2C[C@@H](OC(=O)c2ccc(N)cc2)[C@@H]1OC | inconclusive: 150%
5 | COc1cccc(NC(=O)Nc2ccc(CC(=O)O)cc2)c1 | inconclusive: 106%
6 | FC(F)(F)c1ccncc1-c1nnc(C2CCCCC2)o1 | inconclusive: 509%
7 | COCCN1Cc2cccc(C(=O)Nc3cc(C)cc(C)c3)c2C1=O | inactive: 98.9%
8 | C=CCNC(=O)c1ccc(-n2cccc2)cc1 | inconclusive: 95.1%
9 | c1ccc(Cn2nnc3c(NCc4ccc5c(c4)OCO5)ncnc32)cc1 | inconclusive: 90.1%
10 | O=C(O/N=C1\CCS(=O)(=O)c2sccc21)c1ccccc1 | inactive: 107%
11 | Cc1cccc(-n2nc3c(c2NC(=O)c2ccco2)CS(=O)(=O)C3)c1C | inactive: 99.4%
12 | CC(C)(C)NC(=O)c1cccc(NC(=O)c2ccco2)c1 | inactive: 95%
13 | Cc1ccc(C)c(NC(=O)COC(=O)CCC(=O)c2cccs2)c1 | inconclusive: 52.2%
14 | Cc1ccc(CNC(=O)CCCN2C(=S)NC(C)(C)CC2C)cc1 (stereo not given) | inconclusive: 114%
15 | CC(=O)NCCNC(=O)c1ccc(CSc2ccc(Cl)cc2)cc1 | inconclusive: 91.1%
16 | CCn1c(SCC(=O)Nc2ccccc2C)nc2nc3c(cc2c1=O)COC(C)(C)C3 | inconclusive: 116%
17 | Cc1ccc(S(=O)(=O)N2CCCCC2c2cccnc2)c(C)c1C (stereo not given) | inconclusive: 252%
18 | O=C(Cc1n[nH]c(=O)c2ccccc12)NCc1ccc(Cl)cc1 | inconclusive: 80.7%
19 | CC(C)n1c(NCc2ccc(Cl)cc2)nc2ccccc21 | inconclusive: 100%
20 | COc1ccc(C2CC(O)(c3ccccc3)Oc3cc(OC)cc(OC)c32)cc1 (stereo not given) | inconclusive: 98.6%
21 | Cc1ccc(NCC(O)C(O)C(O)CO)c(N=Nc2ccccc2)c1C (stereo not given) | inconclusive: 99.1%
22 | CC(C)CCn1nnnc1CN1CCN(c2ccccc2)CC1 | inconclusive: 88.3%
23 | CC(C)n1cnnc1SCC(=O)Nc1cccc(S(=O)(=O)N(C)c2ccccc2)c1 | inconclusive: 90.5%
24 | C=CCNCCCOc1ccc(C)cc1Br | inactive: 95.1%
25 | O=C(NNC(=O)c1cc(-c2ccco2)nc2ccccc12)c1ccccc1 | inconclusive: 109%

Structures listed so far containing an aryl thioether with sulfur outside any ring (3):
Row | SMILES | binding response (% of control)
15 | CC(=O)NCCNC(=O)c1ccc(CSc2ccc(Cl)cc2)cc1 | inconclusive: 91.1%
16 | CCn1c(SCC(=O)Nc2ccccc2C)nc2nc3c(cc2c1=O)COC(C)(C)C3 | inconclusive: 116%
23 | CC(C)n1cnnc1SCC(=O)Nc1cccc(S(=O)(=O)N(C)c2ccccc2)c1 | inconclusive: 90.5%
